The assay addresses rabbit anti-M6G polyclonal antibody. The experiment in a line: Cross-reactivity of the competitive M6G-ELISA (M6G-HRP tracer, biotinylated antibody). The class given is binding.

pKd: −log10 of the molar value.

Regarding `CN1CC[C@]23c4c5ccc(O)c4O[C@H]2[C@@H](O)C=C[C@H]3[C@H]1C5` [morphine, Morphine], where the note is “approximate, calculated from Figure 1, competing compound diluted in NBCS at 1, 10, 100 or 1000 nM, one site competition model, read-out: affinity constant K”, the pKd was 6.01. Also, under “ratio of the compound's K to the K of M6G”, the “K relative to M6G (X as high as M6G)” value is given as “more than 160 X”.
